The subject of the data set is activated sludge. Description: BOD-based biodegradability test, OECD Chemicals Test Guideline 301C Modified MITI Test (I). Conditions: for Biodegradability: single cultivation test / control test; for Biodegradability, Average: average of Cultivation Tests 1 to 3.

With `Nc1ccccc1` [Aniline], the Biodegradability was 65.4% (7 days); “higher than 40%” (7 days, listed as aniline); 72.4% (14 days); 75.7% (21 days); 77.7% (28 days).

On to `CCCCCCCCCCCCCCCCCC[N+](C)(C)C.[Cl-]` [Stearyltrimethylammonium Chloride], for which the “Biodegradability, Average” value (7 days) was 0.0%; the “Biodegradability, Average” value (14 days) is 0.0%; the “Biodegradability, Average” value (21 days) amounted to 0.0%; the “Biodegradability, Average” value (28 days) amounted to 0.0%. Also, the Biodegradability is 0.0% (7 days), 0.0% (14 days), 0.0% (21 days) and 0.0% (28 days).
